These are yes or no findings as the source states them, for the method shown. Binding seen in cells or lysates may run through a third protein. Here binding means that the protein was enriched with, or labelled near, the bait; the list need not be complete.

The experiment has as its target T1, Transglutaminase-2 (mouse (endogenous in mouse brain)) (UniProt P21981).
T1 sequence: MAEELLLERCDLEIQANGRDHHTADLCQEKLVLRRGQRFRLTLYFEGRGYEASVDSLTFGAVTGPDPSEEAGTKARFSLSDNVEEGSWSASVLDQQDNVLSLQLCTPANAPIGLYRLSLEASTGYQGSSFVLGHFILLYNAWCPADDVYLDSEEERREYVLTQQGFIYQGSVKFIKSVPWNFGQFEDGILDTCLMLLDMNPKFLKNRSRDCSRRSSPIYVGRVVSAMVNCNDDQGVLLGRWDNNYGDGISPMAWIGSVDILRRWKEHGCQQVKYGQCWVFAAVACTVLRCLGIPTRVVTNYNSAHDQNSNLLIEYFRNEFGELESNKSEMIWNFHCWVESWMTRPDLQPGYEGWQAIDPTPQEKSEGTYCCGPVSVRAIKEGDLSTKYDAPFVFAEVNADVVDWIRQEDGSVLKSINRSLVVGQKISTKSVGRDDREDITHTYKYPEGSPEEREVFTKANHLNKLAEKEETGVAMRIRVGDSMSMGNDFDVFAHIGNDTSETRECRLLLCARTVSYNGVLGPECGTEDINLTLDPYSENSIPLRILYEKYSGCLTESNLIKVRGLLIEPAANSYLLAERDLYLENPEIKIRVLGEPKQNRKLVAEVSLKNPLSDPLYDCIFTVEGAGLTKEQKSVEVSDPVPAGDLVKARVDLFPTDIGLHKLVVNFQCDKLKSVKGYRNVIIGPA
Description: affinity purification with mass spectrometry; TG2 immunoprecipitated from total brain homogenates of 18-month-old WT and APP23 mice with anti-TG2 antibody IA12 crosslinked to protein A/G magnetic beads, 22 h at 4 °C; IP lysis buffer 25 mM Tris pH 7.4, 150 mM NaCl, 1 mM EDTA, 1% NP40, 5% glycerol; on-bead trypsin digest, SWATH MS; TG2−/− cohorts as background, z-test p ≤ 0.05, n = 5 per cohort.

B1: Ly-6/neurotoxin-like protein 1 (protein, UniProt P0DP60 21-92)
chain: LECHVCAYNGDNCFKPMRCPAMATYCMTTRTYFTPYRMKVRKSCVPSCFETVYDGYSKHASATSCCQYYLCN
With B1, the binding entry is listed as “binds”.

B2: Apolipoprotein E (protein, UniProt P08226 19-311)
chain: EGEPEVTDQLEWQSNQPWEQALNRFWDYLRWVQTLSDQVQEELQSSQVTQELTALMEDTMTEVKAYKKELEEQLGPVAEETRARLGKEVQAAQARLGADMEDLRNRLGQYRNEVHTMLGQSTEEIRARLSTHLRKMRKRLMRDAEDLQKRLAVYKAGAREGAERGVSAIRERLGPLVEQGRQRTANLGAGAAQPLRDRAQAFGDRIRGRLEEVGNQARDRLEEVREHMEEVRSKMEEQTQQIRLQAEIFQARLKGWFEPIVEDMHRQWANLMEKIQASVATNPIITPVAQENQ
As to B2, the binding entry was “binds”.

B3: Phospholipase A-2-activating protein (protein, UniProt P27612 1-794)
chain: MASGASRYRLSCSLPGHELDVRGLVCCLYPPGAFVSVSRDRTTRLWAPDSPNRGFTEMHCMSGHSNFVSCVCIIPSSDIYPHGLIATGGNDHNICIFSLDSPMPLYILKGHKDTVCSLSSGKFGTLLSGSWDTTAKVWLNDKCMMTLQGHTAAVWAVKILPEQGLMLTGSADKTIKLWKAGRCERTFLGHEDCVRGLAILSETEFLSCANDASIRRWQITGECLEVYFGHTNYIYSISVFPNSKDFVTTAEDRSLRIWKHGECAQTIRLPAQSIWCCCVLENGDIVVGASDGIIRVFTESEERTASAEEIKAFERELSQATIDSKTGDLGDINAEQLPGREHLSEPGTREGQTRLIRDGERVEAYQWSVSDGRWIKIGDVVGSSGANQQTSGKVLYEGKEFDYVFSIDVNEGGPSYKLPYNVSDDPWLVAYNFLQKNDLNPMFLDQVAKFIIDNTKGQTLGLGNTSFSDPFTGGGRYVPGTSGPSNTVQTADPFTGAGRYMPGSAGMDTTMTGVDPFTGNSAYRSAASKTVNIYFPKKEALTFDQANPTQILGKLKELNGTAPEEKKLTEDDLVLLEKILSLICNNSSEKPTAQQLQILWKAINWPEDIVFPALDILRLSIKHPNVNENFCNEKGDQFSSHLINLLNPKGKPANQLLALRTFCNCFVSQAGQKLMMSQRESLMSHAIELKSGSNKNIHIALATLTLNYSVCFHKDHNIEGKAQCLSVISTILEVVQDLEATFRLLVALGTLISDDSNAIQLAKSLGVDSQIKKYVSVSEPAKVSECCRLVLHLL
B3: the binding result is on record as “binds”.

B4: Solute carrier family 12 member 5 (protein, UniProt Q91V14 1-1138)
chain: MSRRFTVTSLPPAASAASADPESRRHSVADPRRLPREDVKGDGNPKESSPFINSTDTEKGREYDGRNMALFEEEMDTSPMVSSLLSGLANYTNLPQGSREHEEAENNEGGKKKPVQAPRMGTFMGVYLPCLQNIFGVILFLRLTWVVGIAGIMESFCMVFICCSCTMLTAISMSAIATNGVVPAGGSYYMISRSLGPEFGGAVGLCFYLGTTFAGAMYILGTIEILLAYLFPAMAIFKAEDASGEAAAMLNNMRVYGTCVLTCMATVVFVGVKYVNKFALVFLGCVILSILAIYAGVIKSAFDPPNFPICLLGNRTLSRHGFDVCAKLAWEGNETVTTRLWGLFCSSRLLNATCDEYFTRNNVTEIQGIPGAASGLIKENLWSSYLTKGVIVERRGMPSVGLADGTPVDMDHPYVFSDMTSYFTLLVGIYFPSVTGIMAGSNRSGDLRDAQKSIPTGTILAIATTSAVYISSVVLFGACIEGVVLRDKFGEAVNGNLVVGTLAWPSPWVIVIGSFFSTCGAGLQSLTGAPRLLQAISRDGIVPFLQVFGHGKANGEPTWALLLTACICEIGILIASLDEVAPILSMFFLMCYMFVNLACAVQTLLRTPNWRPRFRYYHWTLSFLGMSLCLALMFICSWYYALVAMLIAGLIYKYIEYRGAEKEWGDGIRGLSLSAARYALLRLEEGPPHTKNWRPQLLVLVRVDQDQNVVHPQLLSLTSQLKAGKGLTIVGSVLEGTFLDNHPQAQRAEESIRRLMEAEKVKGFCQVVISSNLRDGVSHLIQSGGLGGLQHNTVLVGWPRNWRQKEDHQTWRNFIELVRETTAGHLALLVTKNVSMFPGNPERFSEGSIDVWWIVHDGGMLMLLPFLLRHHKVWRKCKMRIFTVAQMDDNSIQMKKDLTTFLYHLRITAEVEVVEMHESDISAYTYEKTLVMEQRSQILKQMHLTKNEREREIQSITDESRGSIRRKNPANPRLRLNVPEETACDNEEKPEEEVQLIHDQSAPSCPSSSPSPGEEPEGERETDPEVHLTWTKDKSVAEKNKGPSPVSSEGIKDFFSMKPEWENLNQSNVRRMHTAVRLNEVIVNKSRDAKLVLLNMPGPPRNRNGDENYMEFLEVLTEQLDRVMLVRGGGREVITIYS
Take B4: the binding result is listed as “binds”.

B5: Alpha-soluble NSF attachment protein (protein, UniProt Q9DB05 1-295)
chain: MDNSGKQAEAMALLAEAERKVKNSQSFFSGLFGGSSKIEEACEIYARAANMFKMAKNWSAAGNAFCQAAQLHLQLQSKHDAATCFVDAGNAFKKADPQEAINCLMRAIEIYTDMGRFTIAAKHHISIAEIYETELVDVEKAIAHYEQSADYYKGEESNSSANKCLLKVAGYAAQLEQYQKAIDIYEQVGTSAMDSPLLKYSAKDYFFKAALCHFCIDMLNAKLAVQKYEELFPAFSDSRECKLMKKLLEAHEEQNVDSYTEAVKEYDSISRLDQWLTTMLLRIKKTIQGDEEDLR
Regarding B5, the binding entry is recorded as “binds”.

B6: ATP synthase-coupling factor 6, mitochondrial (protein, UniProt P97450 33-108)
chain: NKELDPVQKLFVDKIREYKSKRQASGGPVDIGPEYQQDLDRELYKLKQMYGKGEMDTFPTFKFDDPKFEVIDKPQS
For the molecule B6, the binding entry was “binds”.

B7: ATP-citrate synthase (protein, UniProt Q91V92 1-1091)
chain: MSAKAISEQTGKELLYKYICTTSAIQNRFKYARVTPDTDWAHLLQDHPWLLSQSLVVKPDQLIKRRGKLGLVGVNLSLDGVKSWLKPRLGHEATVGKAKGFLKNFLIEPFVPHSQAEEFYVCIYATREGDYVLFHHEGGVDVGDVDAKAQKLLVGVDEKLNTEDIKRHLLVHAPEDKKEVLASFISGLFNFYEDLYFTYLEINPLVVTKDGVYILDLAAKVDATADYICKVKWGDIEFPPPFGREAYPEEAYIADLDAKSGASLKLTLLNPKGRIWTMVAGGGASVVYSDTICDLGGVNELANYGEYSGAPSEQQTYDYAKTILSLMTREKHPEGKILIIGGSIANFTNVAATFKGIVRAIRDYQGPLKEHEVTIFVRRGGPNYQEGLRVMGEVGKTTGIPIHVFGTETHMTAIVGMALGHRPIPNQPPTAAHTANFLLNASGSTSTPAPSRTASFSESRADEVAPAKKAKPAMPQGKSATLFSRHTKAIVWGMQTRAVQGMLDFDYVCSRDEPSVAAMVYPFTGDHKQKFYWGHKEILIPVFKNMADAMKKHPEVDVLINFASLRSAYDSTMETMNYAQIRTIAIIAEGIPEALTRKLIKKADQKGVTIIGPATVGGIKPGCFKIGNTGGMLDNILASKLYRPGSVAYVSRSGGMSNELNNIISRTTDGVYEGVAIGGDRYPGSTFMDHVLRYQDTPGVKMIVVLGEIGGTEEYKICRGIKEGRLTKPVVCWCIGTCATMFSSEVQFGHAGACANQASETAVAKNQALKEAGVFVPRSFDELGEIIQSVYEDLVAKGAIVPAQEVPPPTVPMDYSWARELGLIRKPASFMTSICDERGQELIYAGMPITEVFKEEMGIGGVLGLLWFQRRLPKYSCQFIEMCLMVTADHGPAVSGAHNTIICARAGKDLVSSLTSGLLTIGDRFGGALDAAAKMFSKAFDSGIIPMEFVNKMKKEGKLIMGIGHRVKSINNPDMRVQILKDFVKQHFPATPLLDYALEVEKITTSKKPNLILNVDGFIGVAFVDMLRNCGSFTREEADEYVDIGALNGIFVLGRSMGFIGHYLDQKRLKQGLYRHPWDDISYVLPEHMSM
B7: the binding entry is on record as “binds”.

B8: Protein SOGA3 (protein, UniProt Q6NZL0 26-945)
chain: RMHPEGCSRKQQRAQSPARPRDNSLRQTAGATRSPLGVGPKLNSVRQQQLQQQQQQGNKITGRSTSGTGSRGLGGGAEKAVPSIPKGAVPGAVQPAPGAEGSPAAILASVSFRRSGQPEEAPREIESGPSKVGEPPPLGGVGGGGEGGGAGGGPGDREGGAPQPPPPRGWRGKGVRATQRGSSVAEGVSPSPPTAATSKTPGPGSRNSGSGSTGSGSGGGGSYWKEGCLQSELIQFHLKKERAAAAAAAAQMHTKNGGGGSRSSPVAGAPAICEPLVVPSSSPMAAAAEGPQQSAEGNGSGGAMQAAAPPSSQPHSQQLQEQEDMQEEMEKLREENETLKNEIDELRTEMDEMRDTFFEEDACQLQEMRHELERANKNCRILQYRLRKAERKRLRYAQTGEIDGELLRSLEQDLKVAKDVSVRLHHELENVEEKRTTTEDENEKLRQQLIEVEIAKQALQNELEKMKELSLKRRGSKDLPKSEKKAQQTPTEDDNEDLKCQLQFVKEEAALMRKKMAKIDKEKDRFEHELQKYRSFYGDLDSPLPKGEAGGPPSTREAELKLRLRLVEEEANILGRKIVELEVENRGLKAELDDLRGEDFNGSSNPLMREQSESLSELRQHLQLVEDETELLRRNVADLEEQNKRITAELNKYKYKSSGHDSSRHHDNAKTEALQEELKAARLQINELSGKVMQLQYENRVLMSNMQRYDLASHLGIRGSPRDSDAESDAGKKESDDDSRPPHRKREGPIGGESDSEEVRNIRSLTPTRSFYPTPGPWPKSFSDRQQMKDIRSEAERLGKTIDRLIADTSTIITEARIYVANGDLFGLMDEEDDGSRIREHELLYRINAQMKAFRKELQTFIDRLEVPKSADDRGAEEPISVSQMFQPIILLILILVLFSSLSYTTIFKLVFLFTLFFVL
Consider B8, for which the binding result is reported as “binds”.

Values taken from PMC8834516.
